Drawing on PubChem BioAssay AID330 (DTP/NCI, 2004), this text covers survivor count and T/C for 28 compounds.

For this test, the system named is P388 leukemia ip, CD2F1 mice, survival T/C. In words: NCI In Vivo Anticancer Drug Screen. Data for tumor model P388 Leukemia (intraperitoneal) in CD2F1 (CDF1) mice. Particulars: T/C endpoint: median survival time, higher T/C = longer survival.
The mark [1] stands for this setting: dose: 200.0 mg/kg/injection, schedule: Q04DX002 (ip), vehicle: Klucel (hydroxypropylcellulose) (HPC).
Setting [2] is: dose: 400.0 mg/kg/injection, schedule: Q04DX002 (ip), vehicle: Klucel (hydroxypropylcellulose) (HPC).
Where [3] appears, read: dose: 200.0 mg/kg/injection, schedule: Q04DX003 (ip), vehicle: saline with Tween-80.
Setting [4] is: dose: 50.0 mg/kg/injection, schedule: Q04DX003 (ip), vehicle: saline.
The mark [5] stands for this setting: dose: 100.0 mg/kg/injection, schedule: Q01DX009 (ip), vehicle: Klucel (hydroxypropylcellulose) (HPC).
[6] abbreviates: dose: 200.0 mg/kg/injection, schedule: Q01DX005 (ip), vehicle: saline with Tween-80.
The mark [7] stands for this setting: dose: 200.0 mg/kg/injection, schedule: Q01DX009 (ip), vehicle: saline with Tween-80.
Where [8] appears, read: dose: 240.0 mg/kg/injection, schedule: Q01DX005 (ip), vehicle: saline with Tween-80.
The mark [9] stands for this setting: dose: 50.0 mg/kg/injection, schedule: Q01DX005 (ip), vehicle: saline with Tween-80.
Setting [10] is: dose: 100.0 mg/kg/injection, schedule: Q01DX005 (ip), vehicle: saline.
[11] abbreviates: dose: 200.0 mg/kg/injection, schedule: Q01DX005 (ip), vehicle: saline.
The mark [12] stands for this setting: dose: 400.0 mg/kg/injection, schedule: Q01DX005 (ip), vehicle: saline with Tween-80.
The mark [13] stands for this setting: dose: 400.0 mg/kg/injection, schedule: Q01DX009 (ip), vehicle: saline with Tween-80.

The list does not hold the whole screen: it is rich in T/C values a quarter to a half above the control, in often repeated tests (any T/C) and in doses without a T/C. Further doses and runs are listed elsewhere. T/C is the treated group as % of the vehicle group. Some doses have a count of surviving animals in place of a T/C: the source holds a T/C of zero for them, seemingly a mark for toxic or unscored doses. Some survivor counts are full or nearly so, which does not show that the dose was tolerated: the source hardly ever lists a survival T/C far under the control, and the zero likely stands for such cases as well. Counts of survivors are from the toxicity check (mostly the fifth day) where no day follows; animals may have died later. Schedule codes are those of the source, read here as Q, the interval in days (D) or hours (H), X, the number of doses. Some entries were tested several times; the results are listed from low to high. Where survival is the endpoint, this PubChem deposit counts one and a half times the control or more as active, and values a quarter to a half above the control carry no call in these data; other NCI protocols may use other cut-offs. Some T/C values carry the count of animals alive at the toxicity check (mostly the fifth day); without a count, all were alive then.

With `C/C=C/Cc1n[nH]c(=O)c2c(C)[nH]nc12`, the survivor count under setting [1] was 6 of 6 and the survivor count under setting [2] is 0 of 6.

Consider `O=c1[nH]cc(S)c(=O)[nH]1`, for which the survivor count under setting [3] is recorded as 3 of 6.

On to `NC(=O)c1cc(Cl)nc2nc(Cl)nc(N)c12`, for which the T/C under setting [3] is 125 % of control.

Take `CC(C)(CNC(=O)C12CC3CC(CC(C3)C1)C2)NC(=O)C12CC3CC(CC(C3)C1)C2`: the survivor count was 5 of 5 (dose: 50.0 mg/kg/injection, schedule: Q01DX005 (ip), vehicle: Klucel (hydroxypropylcellulose) (HPC)) and 5 of 5 (dose: 200.0 mg/kg/injection, schedule: Q01DX005 (ip), vehicle: Klucel (hydroxypropylcellulose) (HPC)).

On to `CN(C)C(=S)S/C=C\C(=O)O`, for which the survivor count reads like this: (dose: 50.0 mg/kg/injection, schedule: Q04DX003 (ip), vehicle: Klucel (hydroxypropylcellulose) (HPC)) 6 of 6; (dose: 100.0 mg/kg/injection, schedule: Q04DX003 (ip), vehicle: Klucel (hydroxypropylcellulose) (HPC)) 5 of 6; (dose: 200.0 mg/kg/injection, schedule: Q04DX003 (ip), vehicle: Klucel (hydroxypropylcellulose) (HPC)) 6 of 6.

In the case of `NCCNCC[OH2+].NCCNCC[OH2+].O=[N+]([O-])[O-].[Cu+2]`, the survivor count under setting [4] was 2 of 6.

For `O=C(c1cc(F)ccc1Nc1ccccc1)N1CCOCC1`, the survivor count reads like this: (dose: 100.0 mg/kg/injection, schedule: Q01DX009 (ip), vehicle: saline) 6 of 6; (dose: 200.0 mg/kg/injection, schedule: Q01DX009 (ip), vehicle: saline) 6 of 6.

For `C=C1C(=O)O[C@@H]2[C@H]1CC[C@H](C)[C@]1(O)CCC(=O)[C@@]21C`, the T/C under setting [5] was 140 % of control.

On to `O=C1Cc2ccccc2N1C(=O)c1cccc(Br)c1`, for which the survivor count (dose: 400.0 mg/kg/injection, schedule: Q01DX001 (ip), vehicle: Klucel (hydroxypropylcellulose) (HPC)) is 3 of 6.

With `CCCCN(CCC#N)c1ccc(/C=C/c2ccnc3ccccc23)cc1`, the survivor count is given as 6 of 6 under setting [5] and 0 of 6 (dose: 200.0 mg/kg/injection, schedule: Q01DX009 (ip), vehicle: Klucel (hydroxypropylcellulose) (HPC)).

`CN(C)CCC(=O)C1CC1`: the survivor count (dose: 100.0 mg/kg/injection, schedule: Q01DX005 (ip), vehicle: saline with Tween-80) is 0 of 5 and the survivor count under setting [6] is listed as 0 of 5.

As for `CC1(C)COC(CC2CCCCC2)=N1`, the survivor count under setting [7] is 3 of 6.

In the case of `O=C1NN2CCN=C2c2cccnc21`, the survivor count is 3 of 6 (dose: 30.0 mg/kg/injection, schedule: Q01DX005 (ip), vehicle: saline with Tween-80); 0 of 6 (dose: 60.0 mg/kg/injection, schedule: Q01DX005 (ip), vehicle: saline with Tween-80); 0 of 6 (dose: 120.0 mg/kg/injection, schedule: Q01DX005 (ip), vehicle: saline with Tween-80); 0 of 6 under setting [8].

On to `Clc1ccc(S/N=C/c2ccccc2)cc1`, for which the survivor count under setting [7] was 4 of 6.

Regarding `COc1cc2c[n+](C)c3c(c2cc1OC)Cc1cc2c(cc1-3)OCO2`, the T/C was 134 % of control (dose: 12.5 mg/kg/injection, schedule: Q01DX005 (ip), vehicle: saline with Tween-80) and 149 % of control under setting [9]. Also, the survivor count is, setting by setting: under setting [10], 5 of 6; under setting [11], 0 of 6.

With `CN(C)CCCO[Si](C)(c1ccccc1)c1ccc(F)cc1` (stereo not drawn), under setting [7], the survivor count is given as 0 of 6.

Consider `c1ccc2c3c(ccc2c1)OP1(=NP(N2CC2)(N2CC2)=NP(N2CC2)(N2CC2)=N1)Oc1ccc2ccccc2c1-3`, for which the T/C under setting [1] was 129 % of control and the T/C under setting [2] is 133 % of control.

`NC(=O)c1[nH]cnc1O`: the T/C under setting [6] is 132 % of control. Besides, the survivor count (dose: 400.0 mg/kg/injection, schedule: Q04DX002 (ip), vehicle: saline with Tween-80) is given as 0 of 6.

On to `Cc1cc(N)ccc1N=Nc1ccc(N=Nc2ccc(N=Nc3ccc4cc(S(=O)(=O)O)cc(S(=O)(=O)O)c4c3)c(C)c2)c(C)c1`, for which the T/C was 127 % of control under setting [9]; 126 [5 of 6 alive] and 131 % of control under setting [6]; 134 % of control [4 of 6 alive] under setting [12]. Besides, under setting [12], the survivor count is reported as 5 of 6.

Consider `O=C(/C=C/c1c[nH]c2ccccc12)c1ccccc1[N+](=O)[O-]`, for which the survivor count under setting [8] is 6 of 6.

Take `CN(C)CCSc1nc2ccccc2o1`: the survivor count (dose: 240.0 mg/kg/injection, schedule: Q01DX005 (ip), vehicle: saline) is listed as 0 of 6.

On to `CCSc1nc2ccc(Nn3nnnc3-c3ccccc3)cc2s1`, for which the survivor count under setting [5] is reported as 6 of 6.

With `O=NNc1ccncc1`, the T/C (dose: 25.0 mg/kg/injection, schedule: Q01DX005 (ip), vehicle: saline) is 129 % of control. Also, the survivor count is 2 of 6 and 2 of 5 (dose: 50.0 mg/kg/injection, schedule: Q01DX005 (ip), vehicle: saline); 0 of 5 under setting [10]; 0 of 5 under setting [11].

Take `CCCC(C(CC)CN(C)C)N(C)C` (stereo not drawn): the survivor count runs as follows: under setting [7], 0 of 6; under setting [13], 0 of 6.

On to `CN(C)[C@@H]1C(=O)C(C(=O)NCNC2(C(=O)O)CCCC2)=C(O)[C@@]2(O)C(=O)C3=C(O)c4c(O)cccc4[C@@](C)(O)[C@H]3C[C@@H]12`, for which the survivor count (dose: 50.0 mg/kg/injection, schedule: Q01DX009 (ip), vehicle: suspension in saline) is recorded as 5 of 6.

For `Nc1nc(=S)c2[nH]c(N=Nc3ccc(S(=O)(=O)O)cc3)nc2[nH]1`, the T/C reads like this: (dose: 12.5 mg/kg/injection, schedule: Q04DX003 (ip), vehicle: saline) 133 % of control; (dose: 25.0 mg/kg/injection, schedule: Q04DX003 (ip), vehicle: saline) 136 % of control; under setting [4], 133 % of control.

For `COc1ccccc1N=Cc1ccc(C=Nc2ccccc2OC)cc1`, the survivor count runs as follows: (dose: 50.0 mg/kg/injection, schedule: Q01DX009 (ip), vehicle: Klucel (hydroxypropylcellulose) (HPC)) 6 of 6; under setting [5], 6 of 6.

`C=CC(=C)CCC=C(C)C`: the survivor count under setting [13] is 3 of 6.
